PubChem BioAssay AID1259405 | NCATS | 2018

- Purpose: 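Mouse-designed siRNAs used to find CHO productivity engineering targets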 (primary screen)
- Cells: Chinese hamster CHO-K1 ovary cells with stable secreted eGFP expression
- Knock-down reagent: single siRNA against mouse genes, 0.8 pmol siRNA per well (2 µl of 400 nM stock)
- Duration: 3 days
- Measured: 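Per-well intracellular GFP measured by laser scanning cytometry, plus viability from ATP luminescence, each relative to plate median of non-targeting control wells, in %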
- Reading the numbers: GFP, % of control: higher = more GFP per well, higher productivity; viability (ATP), % of control: higher = more viable cells (more ATP)
- Active means: 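a knock-down is called active if GFP reaches 120% or more of non-targeting control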
This is a random part of about 50,000 reagents tested. Over the whole deposit, about 4,000 (8%) got an active call. 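Mouse siRNA library applied to hamster cells; one well for each siRNA.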 Reagents against one gene are numbered here.

| gene symbol | reagent | GFP, % of control | viability (ATP), % of control | Outcome |
| --- | --- | --- | --- | --- |
| Ggh | 1 | 71.8 | 59 | inactive |
| Ggh | 2 | 142 | 110 | active |
| Ggh | 3 | 78.9 | 68.5 | inactive |
| Rnf225 | 1 | 68.6 | 69 | inactive |
| Rnf225 | 2 | 63.4 | 95.4 | inactive |
| Rnf225 | 3 | 56.1 | 67.1 | inactive |
| Slc25a19 | 1 | 39.6 | 61.2 | inactive |
| Slc25a19 | 2 | 64.8 | 70 | inactive |
| Slc25a19 | 3 | 79.3 | 72.2 | inactive |
| Rdh7 | 1 | 55.2 | 56.8 | inactive |
| Rdh7 | 2 | 84.7 | 93.3 | inactive |
| Rdh7 | 3 | 34.4 | 56.9 | inactive |
| Or6c38 | 1 | 92.3 | 66.7 | inactive |
| Or6c38 | 2 | 100 | 71.5 | inactive |
| Or6c38 | 3 | 95.7 | 90.6 | inactive |
| Thrsp | 1 | 57.7 | 72.9 | inactive |
| Thrsp | 2 | 84.3 | 83.3 | inactive |
| Thrsp | 3 | 118 | 91.8 | inactive |
| Slc71a2 | 1 | 38.4 | 35.8 | inactive |
| Slc71a2 | 2 | 75.8 | 63.5 | inactive |
| Slc71a2 | 3 | 62.2 | 88.2 | inactive |
| Vmn1r38 | 1 | 65.3 | 69.7 | inactive |
| Vmn1r38 | 2 | 74.4 | 46.1 | inactive |
| Vmn1r38 | 3 | 88.6 | 93.3 | inactive |
| Pitrm1 | 1 | 95.4 | 89.5 | inactive |
| Pitrm1 | 2 | 50.2 | 44.4 | inactive |
| Pitrm1 | 3 | 65.8 | 49 | inactive |
| Asic2 | 1 | 74 | 61.1 | inactive |
| Asic2 | 2 | 80.1 | 43.3 | inactive |
| Asic2 | 3 | 76.1 | 78.7 | inactive |
| Ccdc22 | 1 | 73.6 | 109 | inactive |
| Ccdc22 | 2 | 72.1 | 47.9 | inactive |
| Ccdc22 | 3 | 63.1 | 79.4 | inactive |
| Or8k27 | 1 | 93 | 99.7 | inactive |
| Or8k27 | 2 | 41.9 | 54.6 | inactive |
| Or8k27 | 3 | 98.8 | 87.4 | inactive |
| Slc41a3 | 1 | 105 | 66.7 | inactive |
| Slc41a3 | 2 | 87.3 | 57.2 | inactive |
| Slc41a3 | 3 | 77.7 | 73.4 | inactive |
| Dnajc22 | 1 | 78.1 | 65.2 | inactive |
| Dnajc22 | 2 | 39.4 | 41.5 | inactive |
| Dnajc22 | 3 | 52.6 | 64.1 | inactive |
| Cep85 | 1 | 51.9 | 43.5 | inactive |
| Cep85 | 2 | 58.2 | 46.2 | inactive |
| Cep85 | 3 | 84.2 | 74.3 | inactive |
| Ctss | 1 | 72.3 | 102 | inactive |
| Ctss | 2 | 41.9 | 46.7 | inactive |
| Ctss | 3 | 56.2 | 48.8 | inactive |
| Zbtb41 | 1 | 88.5 | 129 | inactive |
| Zbtb41 | 2 | 15.2 | 23.6 | inactive |
| Zbtb41 | 3 | 69.1 | 92 | inactive |
| Itgb2l | 1 | 80.6 | 82.9 | inactive |
| Itgb2l | 2 | 64.3 | 58.4 | inactive |
| Itgb2l | 3 | 116 | 77.4 | inactive |
| Padi1 | 1 | 51.5 | 68 | inactive |
| Padi1 | 2 | 92.3 | 85 | inactive |
| Padi1 | 3 | 80.1 | 116 | inactive |
| Clcn3 | 1 | 93.4 | 76.2 | inactive |
| Clcn3 | 2 | 113 | 83.8 | inactive |
| Clcn3 | 3 | 17.9 | 24.2 | inactive |
| Hoxa3 | 1 | 65.4 | 105 | inactive |
| Hoxa3 | 2 | 94.3 | 69.9 | inactive |
| Hoxa3 | 3 | 69.1 | 105 | inactive |
| Ccnd1 | 1 | 64.3 | 98 | inactive |
| Ccnd1 | 2 | 99.9 | 96 | inactive |
| Fabp1 | 1 | 82.9 | 111 | inactive |
| Fabp1 | 2 | 182 | 91.9 | active |
| Fabp1 | 3 | 40 | 67.9 | inactive |
| Dctn1 | 1 | 99.2 | 107 | inactive |
| Dctn1 | 2 | 90.7 | 110 | inactive |
| Plekhm1 | 1 | 41.1 | 42.9 | inactive |
| Plekhm1 | 2 | 89.1 | 84.6 | inactive |
| Plekhm1 | 3 | 49.4 | 67 | inactive |
| Vps37c | 1 | 95.5 | 77.3 | inactive |
| Vps37c | 2 | 91.8 | 87.2 | inactive |
| Vps37c | 3 | 149 | 108 | active |
| Ptp4a1 | 1 | 82.6 | 61.2 | inactive |
| Ptp4a1 | 2 | 78.5 | 66.8 | inactive |
| Ptp4a1 | 3 | 97.4 | 69.3 | inactive |
| Smarce1 | 1 | 60.4 | 87.7 | inactive |
| Smarce1 | 2 | 60.3 | 90.4 | inactive |
| Prl3c1 | 1 | 53.1 | 70.1 | inactive |
| Prl3c1 | 2 | 57.5 | 77.7 | inactive |
| Prl3c1 | 3 | 71.3 | 87.2 | inactive |
| Matk | 1 | 69 | 55.4 | inactive |
| Matk | 2 | 64.9 | 89.4 | inactive |
| Matk | 3 | 69.2 | 78.9 | inactive |
| Lipc | 1 | 75.1 | 94.1 | inactive |
| Lipc | 2 | 52.8 | 72.6 | inactive |
| Lipc | 3 | 23.2 | 21.2 | inactive |
| Tmem131l | 1 | 74.8 | 89.2 | inactive |
| Tmem131l | 2 | 65.4 | 81.4 | inactive |
| Tmem131l | 3 | 88.1 | 93.1 | inactive |
| Bpifb5 | 1 | 50.8 | 50.6 | inactive |
| Bpifb5 | 2 | 53.2 | 82.3 | inactive |
| Bpifb5 | 3 | 101 | 108 | inactive |
| Dnajb5 | 1 | 68.9 | 73 | inactive |
| Dnajb5 | 2 | 72.1 | 80.1 | inactive |
| Dnajb5 | 3 | 55.7 | 105 | inactive |
| Cers2 | 1 | 60.4 | 64.2 | inactive |
| Cers2 | 2 | 58.2 | 56.5 | inactive |
| Cers2 | 3 | 24.9 | 19.1 | inactive |
| Nxph1 | 1 | 87.2 | 91.5 | inactive |
| Nxph1 | 2 | 54.3 | 60.8 | inactive |
| Nxph1 | 3 | 68.4 | 65.6 | inactive |
| Ppp3cb | 1 | 136 | 63.4 | active |
| Ppp3cb | 2 | 78.3 | 81.5 | inactive |
| Ppp3cb | 3 | 94.4 | 99.7 | inactive |
